Measured values from PubChem BioAssay (NCATS).
Inconclusive means that the source gave no clear call. Such entries were picked first, then a sample of the others. Potencies of inconclusive entries are doubtful fits and often do not repeat. Active and inactive are the calls of the source. Calls follow the shape of the dose curve; as a rule, active = well fitted cell-killing curve with a large enough effect; inconclusive = small, poorly fitted or top-dose-only effect, or effect the other way; inactive = no such curve, though single readings can be large or run the other way.

Experiments:
[1] = Quantitative High-Throughput drug screen in 47 multiple myeloma cell lines against the NCATS MIPE library collection: RPMI8226_ATCC cell viability assay (AID 1919871); conditions: RPMI8226 myeloma viability, CellTiter-Glo ATP luminescence, 48 h; series mostly up to 45.8 µM; also: nearly all actives have a fitted effect of over 30% in size
Outline: (§1)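 Myeloma cells (500/well) treated with MIPE 4.0 compounds for 48 h at 37 °C, 5% CO2. Viability read as ATP via CellTiter-Glo luminescence after 5 min at RT; DMSO-only wells = 100%, media-only = 0% viability.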

[2] = Quantitative High-Throughput drug screen in 47 multiple myeloma cell lines against the NCATS MIPE library collection: KMS11_JCRBsus cell viability assay (AID 1919873); also: nearly all actives have a fitted effect of over 50% in size
Outline: as §1

[3] = Quantitative High-Throughput drug screen in 47 multiple myeloma cell lines against the NCATS MIPE library collection: KMS28BM_JCRB cell viability assay (AID 1919874); also: nearly all actives have a fitted effect of over 35% in size
Outline: as §1

[4] = Quantitative High-Throughput drug screen in 47 multiple myeloma cell lines against the NCATS MIPE library collection: OPM2_DSMZ cell viability assay (AID 1919872); conditions: OPM2 myeloma viability, CellTiter-Glo ATP luminescence, 48 h; series mostly up to 45.8 µM; also: nearly all actives have a fitted effect of over 30% in size
Outline: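 qHTS of the MIPE 4.0 collection: 500 myeloma cells/well, 48 h drug exposure at 37C in 5% CO2, then CellTiter-Glo for 5 min at room temperature before luminescence reading.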
Potency is read from the fitted curve at half-maximal effect.

SMILES	Potency [1]	Potency [2]	Potency [3]	Potency [4]
CN1C(C(=O)Nc2ccccn2)=C(O)c2sc(Cl)cc2S1(=O)=O	inconclusive: 9.35 µM [cytotoxic, partial curve, poor fit]	inconclusive: 20.9 µM [cytotoxic, partial curve, poor fit]	inactive	–
COc1cc(F)c(C(C)C)cc1-c1ccc(C(F)(F)F)cc1CN1C(=O)O[C@H](c2cc(C(F)(F)F)cc(C(F)(F)F)c2)[C@@H]1C	–	inactive	inactive	inactive
CC[C@H](C)n1cc(C)c2c(C(=O)NCc3c(C)cc(C)[nH]c3=O)cc(-c3ccc(N4CCNCC4)nc3)cc21	–	–	active: 23.5 µM	inconclusive: 37.2 µM [cytotoxic, single point]
CC(C)C[C@H](NC(=O)[C@H](Cc1ccccc1)NC(=O)c1cnccn1)B(O)O	–	active: 0.0083 µM	–	–
Cc1ccc(NC(=O)c2cccc(N(C)C)c2)cc1NC(=O)c1ccc(O)cc1	–	–	active: 5.26 µM	inconclusive: 4.18 µM [cytotoxic, partial curve, poor fit]
CC(N[C@H]1CCCC[C@H]1NC(=O)c1ccc(Cl)cc1)c1cccc2ccccc12 (stereo partly specified)	–	inconclusive: 13.2 µM [cytotoxic, partial curve]	–	–
Cc1ccc(C(N)=O)cc1Nc1nccc(-c2cn(C(C)C)c3cnccc23)n1	–	active: 4.69 µM	–	–
C=C1[C@H](n2cnc3c(=O)[nH]c(N)nc32)C[C@H](O)[C@H]1CO	–	inconclusive: 18.7 µM [cytotoxic, partial curve, poor fit]	inconclusive: 37.2 µM [cytotoxic, single point]	inactive
